Experimental data as given in patent US12146005B2, “Compositions and methods for treatment of fungal infections” (THE UNIVERSITY OF SOUTHERN CALIFORNIA, priority 2019, dated 2024).
Some entries share one result that the patent states for a list of compounds.

test system: C. albicans SC5314; experiment: In vivo model of disseminated candidiasis in BALB/c mice (survival, body weight, renal fungal burden); conditions: 0.1 mg/kg daily for 7 d; 30 days p.i.; FIGS. 10 to 13
Experimental: Mice were infected i.v. at T=0 with 3×105 blastospores of C. albicans SC5314.
Mice were infected i.v. at T=0 with 3×10^5 blastospores of C. albicans SC5314. At T=24 h, mice were treated i.p. daily for 7 d w.
Suitable cyclic tetradecapeptides can be identified by screening against a murine model for disseminated candidiasis. C. albicans SC5314 obtained from American Type Culture Collection can be used as a suitable reference strain. […] Typical antifungal drugs include caspofungin and fluconazole. Cyclic tetradecapeptides to be tested and antifungal drugs can be suspended or dissolved in water or isotonic saline and administered by one or more of intravenous, subcutaneous, intramuscular, and/or intraperitoneal injection.
In vitro activity of synthetic cyclic tetradecapeptides and antifungal compounds can be determined using conventional culture techniques that are known in the art as described above in relation to RTD-1, and can be used to determine sub-antifungal concentrations. Systemic or disseminated candidiasis can be modeled in vivo by, for example, challenging BALB/c female mice with 0.15 to 2 mL of C. albicans (reference strain or resistant strain) at from about 2×10^5 to about 2×10^7 CFU/mL of the organism. Animals can the be treated with candidate synthetic cyclic tetradecapeptide before challenge with the pathogen, at the time of pathogen challenge, or after challenge with the pathogen. Antifungal drugs and/or candidate synthetic cyclic tetradecapeptide can be administered by intravenous, subcutaneous, intramuscular, and/or intraperitoneal injection in such an in vivo model of systemic or disseminated candidiasis.
In activity studies the synthetic cyclic tetradecapeptide MTD1280 (SEQ ID NO. 6), which was identified initially as having significant antifungal activity, was used as a model peptide. Briefly, 7-8 week old, immunocompetent, female BALB/c mice were challenged i.v. at T=0 with 3×10^5 CFU of C. albicans SC5314. […] As shown, caspofungin (Caspo) is not effective against this strain of C. albicans.
Candidate synthetic cyclic tetradecapeptides were pre-screened for tolerance by determining a lack of toxicity when administered at >5 mg/kg.

| Substance | enhanced survival, P (log-rank analysis) |
| --- | --- |
| MTD1283: synthetic cyclic tetradecapeptide θ-defensin analog, SEQ ID NO. 4, two disulfide bonds (GVCICRRRVCICRR; cyclic, two disulfides; Synthetic cyclic peptide MTD1283) | < 1×10^−5 |
| MTD1288: synthetic cyclic tetradecapeptide θ-defensin analog, SEQ ID NO. 5, two disulfide bonds (GLCICRRRACLCRR; cyclic, two disulfides; Synthetic cyclic peptide MTD1288) | < 1×10^−5 |
| MTD12810: synthetic cyclic tetradecapeptide θ-defensin analog, SEQ ID NO. 2, two disulfide bonds (Cys3-Cys12, Cys5-Cys10) (GVCSCRRRFCLCRR; cyclic, two disulfides; Synthetic circular peptide MTD12810) | < 1×10^−5 |
| MTD12811: synthetic cyclic tetradecapeptide θ-defensin analog, SEQ ID NO. 3, two disulfide bonds (GVCSCRRRFCICRR; cyclic, two disulfides; Synthetic cyclic peptide MTD12811) | < 1×10^−5 |
